Measured values reported in patent US20230220071A1.
No constants are given. Whether binding was seen depends on the method and setting. Some results given as binding are weak or reduced against the parent protein; the word gives no strength.

Tests used:
[1] = target: human transferrin receptor (BIAcore, construct not stated) (human) (UniProt P02786); test: SPR (BIAcore), off-rate determination at 37 °C
[2] = target: cynomolgus transferrin receptor (BIAcore, construct not stated) (cynomolgus); test: SPR (BIAcore), off-rate determination at 37 °C
[3] = target: human transferrin receptor (BIAcore, construct not stated) (human) (UniProt P02786); test: SPR (BIAcore), off-rate determination at 25 °C
[4] = target: cynomolgus transferrin receptor (BIAcore, construct not stated) (cynomolgus); test: SPR (BIAcore), off-rate determination at 25 °C

Measured: binding

B1: murine anti-transferrin receptor antibody 128.1 (antibody, V domains shown)
VH: QVQLVQSGAEVKKPGASVKVSCKASGYTFTGYTMNWVRQAPGQGLEWMGRINPHNGGTDYAQKFQGRVTMTRDTSISTAYMELSRLRSDDTAVYYCARGYYYYSLDYWGQGTLVTVSS
VL: DIQMTQSPSSLSASVGDRVTITCRASSSIRYIHWYQQKPGKAPKRLIYDTSNLASGVPSRFSGSGSGTEFTLTISSLQPEDFATYYCHQRNSYPWTFGQGTRLEIK
binds: [1] | [2] | [3] | [4]

B2: 567 (antibody, V domains shown)
VH: QSMEESGGRLVTPGTPLTLTCTVSGFSLSSYAMSWVRQAPGKGLEWIGYIWSGGSTDYASWAKGRFTISKTSTTVDLKITSPTTEDTATYFCARRYGTSYPDYGDANGFDPWGPGTLVTVSS
VL: AYDMTQTPASVEVAVGGTVTIKCQASQSISSYLSWYQQKPGQRPKLLIYRASTLASGVSSRFKGSGSGTQFTLTISGVESADAATYYCQQSYSSSNVDNTFGGGTEVVVK
binds: [3] | [4]
